The values that follow come from article doi:10.1101/2025.03.01.640934.

Chains of the proteins cited; added tags and fusions are not shown.
UniProt Q6NUN9: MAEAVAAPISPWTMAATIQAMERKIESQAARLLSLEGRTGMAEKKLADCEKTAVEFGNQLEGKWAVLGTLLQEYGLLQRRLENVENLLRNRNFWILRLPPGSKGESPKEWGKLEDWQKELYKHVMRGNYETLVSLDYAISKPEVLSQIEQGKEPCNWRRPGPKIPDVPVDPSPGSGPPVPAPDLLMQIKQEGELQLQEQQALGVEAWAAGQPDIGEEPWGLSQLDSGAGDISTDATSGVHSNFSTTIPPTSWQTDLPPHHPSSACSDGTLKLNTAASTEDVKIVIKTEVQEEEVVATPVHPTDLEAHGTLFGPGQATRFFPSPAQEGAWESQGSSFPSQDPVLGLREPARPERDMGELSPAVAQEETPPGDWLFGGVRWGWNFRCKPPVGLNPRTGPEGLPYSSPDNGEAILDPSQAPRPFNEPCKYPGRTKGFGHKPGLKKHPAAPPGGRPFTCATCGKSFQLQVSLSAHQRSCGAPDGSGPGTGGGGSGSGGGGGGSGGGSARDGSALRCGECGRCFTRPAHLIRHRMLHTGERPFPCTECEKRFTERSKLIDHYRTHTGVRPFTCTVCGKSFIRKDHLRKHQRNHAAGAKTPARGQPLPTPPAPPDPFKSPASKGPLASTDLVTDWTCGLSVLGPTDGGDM
UniProt Q9UDV7: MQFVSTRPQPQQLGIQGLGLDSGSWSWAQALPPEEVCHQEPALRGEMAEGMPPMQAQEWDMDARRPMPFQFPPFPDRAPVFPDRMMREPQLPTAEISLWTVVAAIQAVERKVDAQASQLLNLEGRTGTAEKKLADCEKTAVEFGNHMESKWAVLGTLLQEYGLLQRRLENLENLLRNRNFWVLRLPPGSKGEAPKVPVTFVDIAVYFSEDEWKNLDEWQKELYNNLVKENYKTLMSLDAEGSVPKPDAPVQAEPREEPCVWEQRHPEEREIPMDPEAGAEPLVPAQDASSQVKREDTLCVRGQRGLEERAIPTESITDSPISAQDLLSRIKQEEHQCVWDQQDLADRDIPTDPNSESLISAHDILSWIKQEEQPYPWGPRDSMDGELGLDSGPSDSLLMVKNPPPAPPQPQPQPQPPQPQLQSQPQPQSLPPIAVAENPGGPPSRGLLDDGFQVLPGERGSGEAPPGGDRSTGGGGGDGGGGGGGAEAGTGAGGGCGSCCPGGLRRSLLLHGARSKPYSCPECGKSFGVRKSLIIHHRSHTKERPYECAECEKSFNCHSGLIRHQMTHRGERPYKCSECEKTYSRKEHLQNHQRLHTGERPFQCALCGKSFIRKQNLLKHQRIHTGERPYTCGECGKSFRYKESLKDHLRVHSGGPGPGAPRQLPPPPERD
UniProt Q9ULD5: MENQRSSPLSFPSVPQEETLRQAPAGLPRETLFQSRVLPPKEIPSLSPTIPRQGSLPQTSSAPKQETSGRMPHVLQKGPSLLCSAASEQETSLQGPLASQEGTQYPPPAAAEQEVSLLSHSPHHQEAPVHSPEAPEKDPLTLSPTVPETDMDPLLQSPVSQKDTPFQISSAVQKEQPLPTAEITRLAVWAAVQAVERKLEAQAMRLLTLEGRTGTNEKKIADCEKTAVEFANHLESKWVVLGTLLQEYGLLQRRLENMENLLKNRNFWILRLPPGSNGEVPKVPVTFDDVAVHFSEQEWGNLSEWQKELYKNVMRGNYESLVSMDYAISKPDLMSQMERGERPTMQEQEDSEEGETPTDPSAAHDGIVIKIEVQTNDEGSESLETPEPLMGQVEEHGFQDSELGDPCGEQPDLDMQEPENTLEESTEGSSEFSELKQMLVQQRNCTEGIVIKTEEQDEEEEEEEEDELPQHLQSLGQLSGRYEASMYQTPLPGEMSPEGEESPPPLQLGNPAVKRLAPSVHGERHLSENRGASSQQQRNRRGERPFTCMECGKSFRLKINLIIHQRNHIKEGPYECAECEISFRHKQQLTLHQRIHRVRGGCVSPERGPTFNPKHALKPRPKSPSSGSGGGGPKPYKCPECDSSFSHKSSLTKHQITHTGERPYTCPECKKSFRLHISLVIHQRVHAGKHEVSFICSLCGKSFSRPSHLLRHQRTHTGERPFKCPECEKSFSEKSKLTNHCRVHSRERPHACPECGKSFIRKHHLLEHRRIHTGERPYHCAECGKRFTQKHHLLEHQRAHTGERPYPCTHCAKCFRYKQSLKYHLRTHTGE

For this assay, the target named is full-length ZNF746 fused to TurboID (human) (UniProt Q6NUN9). The assay can be described thus: proximity labelling.

Results are given in words; binding and its absence hold for the method and conditions named. In cells and extracts the contact can be indirect. These calls come from enrichment with a bait or labelling near it, and not all partners need be listed.

As for ZNF282 (from UniProt Q9UDV7 1-671), the binding result was “binds”. The value for ZNF777 (from UniProt Q9ULD5 1-831) was “binds”.
